The text below walks through data of article PMC4794507.

By UniProt entry, the sequences of proteins in these tests, tags left out.
UniProt Q59987: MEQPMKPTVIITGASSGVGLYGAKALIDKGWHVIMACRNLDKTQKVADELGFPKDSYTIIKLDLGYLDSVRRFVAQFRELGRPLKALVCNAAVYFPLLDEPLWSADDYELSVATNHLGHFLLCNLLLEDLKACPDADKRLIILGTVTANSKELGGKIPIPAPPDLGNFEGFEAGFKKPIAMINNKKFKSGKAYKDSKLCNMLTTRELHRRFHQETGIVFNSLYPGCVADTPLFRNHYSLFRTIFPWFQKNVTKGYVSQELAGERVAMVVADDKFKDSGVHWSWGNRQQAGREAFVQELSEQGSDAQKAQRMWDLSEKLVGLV

No constants are given. Whether binding was seen depends on the method and setting. Binding seen in cells or lysates may run through a third protein. A yes stands for co-enrichment or nearness to the bait. Other partners may have been found. For part of these data: A no says only that the protein was not detected with the bait. Where a sequence is shown, tags or fusion partners need not be part of it.

Experiment [1] concerns the target T1, N-terminal FLAG-tagged CycI (Synechocystis PCC 6803) (UniProt P72584).
T1 sequence: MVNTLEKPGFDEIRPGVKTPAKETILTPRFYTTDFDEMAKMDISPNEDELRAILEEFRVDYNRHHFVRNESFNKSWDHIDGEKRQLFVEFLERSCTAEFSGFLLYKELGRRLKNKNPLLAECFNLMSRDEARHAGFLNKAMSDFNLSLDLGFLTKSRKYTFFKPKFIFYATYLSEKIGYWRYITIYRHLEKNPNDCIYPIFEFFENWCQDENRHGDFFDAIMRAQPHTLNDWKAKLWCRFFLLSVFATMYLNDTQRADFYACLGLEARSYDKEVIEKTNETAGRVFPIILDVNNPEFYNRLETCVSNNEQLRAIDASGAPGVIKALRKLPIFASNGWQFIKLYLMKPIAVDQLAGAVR
Description: affinity purification with mass spectrometry; N-terminal FLAG-tagged CycI as bait in the Δycf54 Synechocystis background (no Ycf54); FLAG eluates digested with trypsin/Lys-C and analysed by nanoLC-MS/MS; captured proteins quantified relative to the CycI bait.

The target of experiment [2] is T1, N-terminal FLAG-tagged CycI (Synechocystis PCC 6803). Description: affinity purification with mass spectrometry; N-terminal FLAG-tagged CycI as bait in the wild-type (WT) Synechocystis background; FLAG eluates digested with trypsin/Lys-C and analysed by nanoLC-MS/MS; captured proteins quantified relative to the CycI bait.
For experiment [3] the target is unchanged. Description: condition: only in the Δycf54 background (no Ycf54); affinity purification with mass spectrometry; N-terminal FLAG-tagged CycI as bait in the Δycf54 Synechocystis background (no Ycf54); FLAG eluates digested with trypsin/Lys-C and analysed by nanoLC-MS/MS; captured proteins quantified relative to the CycI bait.

On to “3,8-divinyl (proto)chorophyllide reductase (enzyme)”, for which the binding result in experiment [1] is given as “binds weakly”; in experiment [2], “binds”; in experiment [3], “no binding”.
With “PChlide oxidoreductase (from UniProt Q59987 1-322) (enzyme)”, the binding entry in experiment [2] is recorded as “binds”.

B1: geranylgeranyl reductase (enzyme, UniProt Q55087 1-407)
chain: MVLRVAVVGGGPAGSSAAEILVKAGIETYLFERKLDNAKPCGGAIPLCMVDEFDLPPEIIDRRVRKMKMISPSNIEVNIGQTLKDDEYIGMCRREVLDGFLRERAEKLGTKVINGTVYKLDIPSKDSDPYTLHYADHSVGGTTGEMKILKVDVVIGADGANSRIAKAIDAGDYNYAIAFQERIRLPEDKMAYYDELAEMYVGDDVSPDFYAWVFPKYDHVAVGTGTMKVNKARIKDLQAGIRTRAAKKLEGGEIIKVEAHPIPEHPRPRRVVGRVALVGDAAGTVTKSSGEGIYFAAKSARMCAETIVATSNNGQRVPTEADLKQYIKQWDKRYGATYLVLDILQRVFYRTDATREAFVEMCSDIDVQKLTFDSYLYKTVVPANPLVQMKITAKTIGSLLRGNALAP
For the molecule B1, the figures for the binding entry in experiment [1] and in experiment [2] were “binds weakly” and “binds”, respectively.
